{
  "sequences": {"note": "Protein sequences, listed by entry. Tags and fused reporters are not part of them.", "UniProt Q14643": "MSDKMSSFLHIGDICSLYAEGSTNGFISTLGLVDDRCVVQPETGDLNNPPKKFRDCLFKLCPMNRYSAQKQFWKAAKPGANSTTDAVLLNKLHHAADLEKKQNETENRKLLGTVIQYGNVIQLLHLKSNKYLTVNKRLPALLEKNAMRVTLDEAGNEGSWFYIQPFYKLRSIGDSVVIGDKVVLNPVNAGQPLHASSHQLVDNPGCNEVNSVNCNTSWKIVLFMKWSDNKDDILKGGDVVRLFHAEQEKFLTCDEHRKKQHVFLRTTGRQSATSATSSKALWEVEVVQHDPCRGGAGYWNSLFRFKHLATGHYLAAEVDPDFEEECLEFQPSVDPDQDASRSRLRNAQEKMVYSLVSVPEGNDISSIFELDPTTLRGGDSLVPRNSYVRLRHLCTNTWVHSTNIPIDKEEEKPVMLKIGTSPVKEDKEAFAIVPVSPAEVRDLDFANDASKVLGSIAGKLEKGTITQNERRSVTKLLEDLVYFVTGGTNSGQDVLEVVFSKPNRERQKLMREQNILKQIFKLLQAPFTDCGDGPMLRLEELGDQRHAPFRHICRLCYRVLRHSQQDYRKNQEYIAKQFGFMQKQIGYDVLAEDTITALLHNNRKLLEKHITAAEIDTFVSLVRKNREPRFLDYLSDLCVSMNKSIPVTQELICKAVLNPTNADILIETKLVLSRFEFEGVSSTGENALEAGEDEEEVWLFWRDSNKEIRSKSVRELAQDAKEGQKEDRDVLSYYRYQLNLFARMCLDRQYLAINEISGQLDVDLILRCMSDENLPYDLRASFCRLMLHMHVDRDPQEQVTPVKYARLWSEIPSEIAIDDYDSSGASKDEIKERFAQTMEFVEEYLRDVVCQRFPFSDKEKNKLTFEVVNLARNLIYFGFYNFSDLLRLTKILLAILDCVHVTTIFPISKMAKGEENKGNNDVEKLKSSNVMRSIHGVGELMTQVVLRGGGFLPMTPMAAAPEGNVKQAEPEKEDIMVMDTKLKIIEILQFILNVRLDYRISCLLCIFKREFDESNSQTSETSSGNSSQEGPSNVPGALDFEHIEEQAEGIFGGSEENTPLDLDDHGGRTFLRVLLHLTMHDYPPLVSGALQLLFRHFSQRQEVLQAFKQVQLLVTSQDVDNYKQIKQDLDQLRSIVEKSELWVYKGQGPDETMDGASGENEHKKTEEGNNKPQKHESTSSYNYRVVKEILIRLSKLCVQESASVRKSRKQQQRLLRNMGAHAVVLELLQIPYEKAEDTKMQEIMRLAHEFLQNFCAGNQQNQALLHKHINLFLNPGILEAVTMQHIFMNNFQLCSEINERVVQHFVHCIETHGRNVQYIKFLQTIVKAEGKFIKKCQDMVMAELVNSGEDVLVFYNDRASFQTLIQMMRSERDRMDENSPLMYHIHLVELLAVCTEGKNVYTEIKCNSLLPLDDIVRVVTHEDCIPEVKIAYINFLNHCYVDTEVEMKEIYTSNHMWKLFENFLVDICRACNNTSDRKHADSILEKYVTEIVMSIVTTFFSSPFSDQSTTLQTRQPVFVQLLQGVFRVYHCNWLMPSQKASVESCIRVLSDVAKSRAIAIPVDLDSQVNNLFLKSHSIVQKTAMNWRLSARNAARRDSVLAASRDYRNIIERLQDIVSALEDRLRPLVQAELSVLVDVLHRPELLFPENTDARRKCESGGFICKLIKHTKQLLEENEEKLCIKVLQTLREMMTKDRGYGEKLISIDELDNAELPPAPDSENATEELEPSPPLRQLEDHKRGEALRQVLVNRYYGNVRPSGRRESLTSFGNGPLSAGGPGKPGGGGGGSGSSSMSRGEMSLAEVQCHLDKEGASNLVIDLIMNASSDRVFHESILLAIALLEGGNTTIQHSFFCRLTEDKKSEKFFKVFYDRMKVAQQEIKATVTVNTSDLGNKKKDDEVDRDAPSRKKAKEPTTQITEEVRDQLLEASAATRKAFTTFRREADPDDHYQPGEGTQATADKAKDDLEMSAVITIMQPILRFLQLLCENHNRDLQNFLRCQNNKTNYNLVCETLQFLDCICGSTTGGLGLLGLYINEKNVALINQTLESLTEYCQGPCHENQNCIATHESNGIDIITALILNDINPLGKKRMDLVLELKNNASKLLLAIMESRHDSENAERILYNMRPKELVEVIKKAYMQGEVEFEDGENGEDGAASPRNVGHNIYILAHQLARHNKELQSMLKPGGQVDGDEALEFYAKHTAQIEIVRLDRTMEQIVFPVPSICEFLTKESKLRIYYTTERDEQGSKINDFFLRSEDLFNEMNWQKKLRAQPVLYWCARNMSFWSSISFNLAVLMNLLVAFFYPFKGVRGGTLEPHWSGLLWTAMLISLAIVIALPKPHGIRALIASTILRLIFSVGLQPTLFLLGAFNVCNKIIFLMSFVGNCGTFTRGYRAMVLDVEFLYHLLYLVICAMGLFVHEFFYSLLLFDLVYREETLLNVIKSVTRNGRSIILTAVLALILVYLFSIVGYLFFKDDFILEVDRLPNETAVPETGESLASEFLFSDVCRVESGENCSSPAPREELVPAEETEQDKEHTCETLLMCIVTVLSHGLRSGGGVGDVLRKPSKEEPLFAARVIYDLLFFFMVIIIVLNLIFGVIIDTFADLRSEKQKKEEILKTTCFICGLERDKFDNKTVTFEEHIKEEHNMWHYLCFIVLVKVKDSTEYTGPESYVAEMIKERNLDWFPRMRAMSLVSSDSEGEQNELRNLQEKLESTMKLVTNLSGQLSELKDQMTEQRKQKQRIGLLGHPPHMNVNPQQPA"},
  "source": "paper PMC5630627",
  "target": "IP3R-1 (inositol 1,4,5-trisphosphate receptor, endogenous) (human (endogenous in HAECs)) (UniProt Q14643)",
  "test": "co-IP; HAECs infected with 100 MOI Ad-Bik or Ad-Bik^L61G, 24 h; lysates immunoprecipitated with anti-Bcl-2 (Fig. 1e, 1k) or anti-IP3R-1 (Fig. 1k) antibody cross-linked to Protein A/G Plus agarose, overnight at 4 °C; western blot",
  "note": "Results are given in words; binding and its absence hold for the method and conditions named. In cells and extracts the contact can be indirect. Some results given as binding are weak or reduced against the parent protein; the word gives no strength.",
  "data": [
    {"substance": "Bcl-2 (endogenous) (from UniProt P10415 1-239)", "values": [
      {"measurement": "binding", "result": "binds"}
    ]}
  ]
}
